# Laboratory results taken from the supplement of paper PMC10849652.
# The chains behind the UniProt entries cited, without tags or fusion partners. Where a name states a change or a piece, a line headed by the entry shows the natural chain unless it says otherwise.
# UniProt O15498: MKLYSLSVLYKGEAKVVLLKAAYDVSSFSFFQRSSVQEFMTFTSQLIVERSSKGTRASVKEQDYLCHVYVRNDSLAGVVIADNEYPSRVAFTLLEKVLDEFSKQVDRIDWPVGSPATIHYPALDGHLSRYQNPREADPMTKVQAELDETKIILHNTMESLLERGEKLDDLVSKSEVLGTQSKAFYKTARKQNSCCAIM
# UniProt Q9NUE0: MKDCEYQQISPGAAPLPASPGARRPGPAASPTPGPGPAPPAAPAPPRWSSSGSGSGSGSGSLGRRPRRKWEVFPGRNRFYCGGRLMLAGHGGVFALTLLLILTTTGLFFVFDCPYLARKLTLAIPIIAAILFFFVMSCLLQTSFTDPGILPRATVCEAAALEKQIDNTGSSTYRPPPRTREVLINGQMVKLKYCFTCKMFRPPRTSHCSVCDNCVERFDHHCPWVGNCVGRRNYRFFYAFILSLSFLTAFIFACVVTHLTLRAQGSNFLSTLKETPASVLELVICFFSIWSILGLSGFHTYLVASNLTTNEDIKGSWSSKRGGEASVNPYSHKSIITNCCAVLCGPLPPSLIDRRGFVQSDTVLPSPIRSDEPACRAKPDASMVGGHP
# UniProt O14980, whole entry, looked up: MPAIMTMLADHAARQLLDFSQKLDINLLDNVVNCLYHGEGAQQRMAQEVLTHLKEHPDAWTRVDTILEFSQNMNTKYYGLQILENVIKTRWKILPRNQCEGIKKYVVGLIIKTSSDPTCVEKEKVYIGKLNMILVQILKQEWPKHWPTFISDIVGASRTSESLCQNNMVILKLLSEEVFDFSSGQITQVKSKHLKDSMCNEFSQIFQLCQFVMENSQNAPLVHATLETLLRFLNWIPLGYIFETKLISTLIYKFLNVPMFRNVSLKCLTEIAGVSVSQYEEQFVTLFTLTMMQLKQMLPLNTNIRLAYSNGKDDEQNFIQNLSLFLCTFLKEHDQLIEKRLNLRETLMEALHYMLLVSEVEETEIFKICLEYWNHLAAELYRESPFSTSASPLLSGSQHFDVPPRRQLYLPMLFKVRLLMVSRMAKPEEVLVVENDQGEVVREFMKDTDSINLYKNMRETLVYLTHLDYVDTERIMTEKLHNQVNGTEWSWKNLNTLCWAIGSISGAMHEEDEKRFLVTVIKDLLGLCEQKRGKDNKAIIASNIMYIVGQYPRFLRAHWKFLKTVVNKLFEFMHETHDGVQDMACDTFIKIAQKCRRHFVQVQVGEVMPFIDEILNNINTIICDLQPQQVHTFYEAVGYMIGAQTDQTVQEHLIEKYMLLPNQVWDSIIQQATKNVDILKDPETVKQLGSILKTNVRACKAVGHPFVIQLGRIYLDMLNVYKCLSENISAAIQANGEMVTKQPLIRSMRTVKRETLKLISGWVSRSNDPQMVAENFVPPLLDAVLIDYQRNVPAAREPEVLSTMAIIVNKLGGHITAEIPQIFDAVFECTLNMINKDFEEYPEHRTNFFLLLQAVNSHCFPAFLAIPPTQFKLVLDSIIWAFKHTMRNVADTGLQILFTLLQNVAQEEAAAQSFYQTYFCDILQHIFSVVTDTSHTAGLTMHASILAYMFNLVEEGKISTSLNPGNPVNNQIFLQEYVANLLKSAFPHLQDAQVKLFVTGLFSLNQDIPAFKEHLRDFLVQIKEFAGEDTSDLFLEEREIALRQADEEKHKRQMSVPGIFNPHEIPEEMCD
# UniProt Q9NP64: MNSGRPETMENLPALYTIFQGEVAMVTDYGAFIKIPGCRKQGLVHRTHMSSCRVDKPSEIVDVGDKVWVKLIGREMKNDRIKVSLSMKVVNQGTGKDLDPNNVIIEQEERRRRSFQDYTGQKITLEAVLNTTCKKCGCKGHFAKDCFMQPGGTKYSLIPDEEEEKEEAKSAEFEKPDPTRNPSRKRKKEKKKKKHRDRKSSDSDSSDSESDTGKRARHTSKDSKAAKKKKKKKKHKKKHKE
# UniProt Q5T200: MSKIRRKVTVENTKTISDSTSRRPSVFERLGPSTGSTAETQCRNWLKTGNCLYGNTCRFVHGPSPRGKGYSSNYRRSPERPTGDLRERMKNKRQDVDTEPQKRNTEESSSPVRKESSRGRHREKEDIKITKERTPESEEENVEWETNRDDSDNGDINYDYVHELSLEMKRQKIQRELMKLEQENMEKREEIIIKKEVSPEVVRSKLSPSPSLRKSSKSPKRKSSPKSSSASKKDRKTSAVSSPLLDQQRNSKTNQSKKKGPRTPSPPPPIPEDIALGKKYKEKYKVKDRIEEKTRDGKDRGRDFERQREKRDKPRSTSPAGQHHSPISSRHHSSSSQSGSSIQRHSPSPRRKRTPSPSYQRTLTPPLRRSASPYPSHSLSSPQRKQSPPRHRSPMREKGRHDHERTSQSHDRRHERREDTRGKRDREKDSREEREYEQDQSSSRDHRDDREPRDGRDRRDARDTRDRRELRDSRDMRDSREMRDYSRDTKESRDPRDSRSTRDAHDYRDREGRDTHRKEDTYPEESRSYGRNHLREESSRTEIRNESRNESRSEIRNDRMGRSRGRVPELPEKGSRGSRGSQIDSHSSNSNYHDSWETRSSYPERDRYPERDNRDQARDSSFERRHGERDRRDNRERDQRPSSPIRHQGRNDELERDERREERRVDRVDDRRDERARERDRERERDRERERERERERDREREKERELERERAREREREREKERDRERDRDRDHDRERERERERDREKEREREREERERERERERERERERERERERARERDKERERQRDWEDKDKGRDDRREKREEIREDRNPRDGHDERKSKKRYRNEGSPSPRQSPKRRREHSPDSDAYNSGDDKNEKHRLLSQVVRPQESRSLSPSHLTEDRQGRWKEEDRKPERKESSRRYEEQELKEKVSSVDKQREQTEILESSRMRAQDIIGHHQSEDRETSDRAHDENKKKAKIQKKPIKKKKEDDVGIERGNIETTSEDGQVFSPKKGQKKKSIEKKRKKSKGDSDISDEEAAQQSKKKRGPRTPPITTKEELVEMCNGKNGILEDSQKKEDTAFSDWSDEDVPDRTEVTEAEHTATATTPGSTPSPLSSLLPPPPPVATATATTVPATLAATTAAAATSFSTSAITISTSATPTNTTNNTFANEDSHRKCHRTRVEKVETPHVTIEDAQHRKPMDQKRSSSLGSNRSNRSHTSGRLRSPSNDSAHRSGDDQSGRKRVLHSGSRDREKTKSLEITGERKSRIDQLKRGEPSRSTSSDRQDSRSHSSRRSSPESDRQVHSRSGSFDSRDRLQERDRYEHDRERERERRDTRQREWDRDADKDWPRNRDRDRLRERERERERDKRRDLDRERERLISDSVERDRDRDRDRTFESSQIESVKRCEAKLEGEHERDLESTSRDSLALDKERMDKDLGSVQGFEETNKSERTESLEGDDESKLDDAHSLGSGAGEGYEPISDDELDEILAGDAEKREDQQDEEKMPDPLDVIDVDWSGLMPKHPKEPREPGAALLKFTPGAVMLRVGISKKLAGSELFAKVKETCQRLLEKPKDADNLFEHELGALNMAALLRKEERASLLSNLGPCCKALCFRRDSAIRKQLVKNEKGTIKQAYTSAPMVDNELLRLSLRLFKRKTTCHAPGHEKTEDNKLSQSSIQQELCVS
# UniProt P31946: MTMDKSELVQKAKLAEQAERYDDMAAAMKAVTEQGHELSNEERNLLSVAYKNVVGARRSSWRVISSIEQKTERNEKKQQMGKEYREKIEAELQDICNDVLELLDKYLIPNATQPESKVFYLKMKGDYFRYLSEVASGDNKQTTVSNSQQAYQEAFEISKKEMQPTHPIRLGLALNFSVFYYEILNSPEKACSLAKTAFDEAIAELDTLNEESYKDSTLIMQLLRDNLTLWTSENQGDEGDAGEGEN
# UniProt P18887, whole entry, looked up: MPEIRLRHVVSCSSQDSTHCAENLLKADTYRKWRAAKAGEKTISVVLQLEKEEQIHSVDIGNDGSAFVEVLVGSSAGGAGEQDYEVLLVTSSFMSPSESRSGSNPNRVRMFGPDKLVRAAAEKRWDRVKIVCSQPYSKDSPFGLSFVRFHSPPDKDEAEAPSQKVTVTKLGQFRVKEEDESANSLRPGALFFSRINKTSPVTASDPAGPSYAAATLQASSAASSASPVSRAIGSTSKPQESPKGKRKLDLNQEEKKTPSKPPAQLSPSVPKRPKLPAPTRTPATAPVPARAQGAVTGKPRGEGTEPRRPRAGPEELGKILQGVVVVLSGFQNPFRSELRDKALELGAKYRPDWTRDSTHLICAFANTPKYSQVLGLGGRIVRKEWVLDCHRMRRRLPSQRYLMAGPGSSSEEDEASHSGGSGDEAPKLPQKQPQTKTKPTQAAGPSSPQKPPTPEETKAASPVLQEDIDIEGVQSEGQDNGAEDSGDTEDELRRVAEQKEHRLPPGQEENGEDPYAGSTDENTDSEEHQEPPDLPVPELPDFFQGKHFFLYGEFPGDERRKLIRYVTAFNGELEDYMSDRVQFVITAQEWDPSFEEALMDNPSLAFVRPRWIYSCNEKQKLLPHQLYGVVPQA
# UniProt O60293: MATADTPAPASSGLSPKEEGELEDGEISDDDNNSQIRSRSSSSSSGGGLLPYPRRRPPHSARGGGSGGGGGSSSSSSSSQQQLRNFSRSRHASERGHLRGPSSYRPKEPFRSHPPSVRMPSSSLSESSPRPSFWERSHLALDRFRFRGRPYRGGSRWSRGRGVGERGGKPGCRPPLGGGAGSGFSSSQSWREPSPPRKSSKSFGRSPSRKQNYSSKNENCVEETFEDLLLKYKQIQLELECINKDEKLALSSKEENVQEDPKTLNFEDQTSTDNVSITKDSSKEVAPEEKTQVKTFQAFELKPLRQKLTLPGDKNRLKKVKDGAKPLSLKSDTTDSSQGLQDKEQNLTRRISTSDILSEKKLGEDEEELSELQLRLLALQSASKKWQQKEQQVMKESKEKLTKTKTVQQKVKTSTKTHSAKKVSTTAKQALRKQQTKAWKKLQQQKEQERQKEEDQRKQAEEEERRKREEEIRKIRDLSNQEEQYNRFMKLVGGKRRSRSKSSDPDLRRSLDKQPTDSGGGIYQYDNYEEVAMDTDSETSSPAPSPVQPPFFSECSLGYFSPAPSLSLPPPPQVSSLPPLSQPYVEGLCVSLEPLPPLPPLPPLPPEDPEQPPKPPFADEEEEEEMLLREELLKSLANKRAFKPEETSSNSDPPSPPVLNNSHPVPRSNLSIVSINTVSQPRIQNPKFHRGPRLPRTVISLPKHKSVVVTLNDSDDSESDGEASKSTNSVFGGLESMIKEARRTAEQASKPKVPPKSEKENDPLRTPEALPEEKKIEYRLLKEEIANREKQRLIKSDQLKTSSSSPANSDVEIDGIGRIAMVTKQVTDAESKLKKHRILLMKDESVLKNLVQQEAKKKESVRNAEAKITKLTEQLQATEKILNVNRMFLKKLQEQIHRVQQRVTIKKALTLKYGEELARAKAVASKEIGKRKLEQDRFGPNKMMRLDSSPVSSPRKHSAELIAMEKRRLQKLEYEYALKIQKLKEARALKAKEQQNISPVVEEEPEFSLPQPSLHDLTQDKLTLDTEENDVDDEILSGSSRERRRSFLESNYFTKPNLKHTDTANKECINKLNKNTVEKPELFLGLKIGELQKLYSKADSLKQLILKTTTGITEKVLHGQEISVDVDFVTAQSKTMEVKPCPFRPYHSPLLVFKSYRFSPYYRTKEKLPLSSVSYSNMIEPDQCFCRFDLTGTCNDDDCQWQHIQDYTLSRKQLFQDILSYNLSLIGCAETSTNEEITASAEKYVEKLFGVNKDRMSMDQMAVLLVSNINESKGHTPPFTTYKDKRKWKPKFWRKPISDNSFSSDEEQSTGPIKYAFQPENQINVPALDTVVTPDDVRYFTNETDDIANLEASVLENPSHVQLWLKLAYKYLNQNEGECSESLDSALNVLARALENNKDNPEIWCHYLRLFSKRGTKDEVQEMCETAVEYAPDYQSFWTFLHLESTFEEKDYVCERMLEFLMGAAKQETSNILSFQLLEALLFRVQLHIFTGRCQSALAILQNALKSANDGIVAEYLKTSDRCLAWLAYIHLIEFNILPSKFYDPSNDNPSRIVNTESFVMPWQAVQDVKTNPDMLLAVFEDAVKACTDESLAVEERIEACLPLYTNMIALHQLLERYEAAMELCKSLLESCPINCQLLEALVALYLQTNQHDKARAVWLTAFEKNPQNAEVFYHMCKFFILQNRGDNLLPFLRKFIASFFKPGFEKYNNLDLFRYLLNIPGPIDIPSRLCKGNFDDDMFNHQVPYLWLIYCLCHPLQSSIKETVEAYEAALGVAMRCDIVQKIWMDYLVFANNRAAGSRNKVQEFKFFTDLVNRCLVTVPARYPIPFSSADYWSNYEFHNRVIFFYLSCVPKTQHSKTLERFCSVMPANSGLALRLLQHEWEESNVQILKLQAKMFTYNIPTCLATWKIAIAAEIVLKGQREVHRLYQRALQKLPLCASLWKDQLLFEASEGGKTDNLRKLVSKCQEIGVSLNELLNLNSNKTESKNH
# This is one part of the list.
# Columns and labels:
# Assay in all cases: log2 fold change, soluble protein after heating vs DMSO (PISA); higher = thermal stabilisation; K562 lysate, 10 uM; active = over 0.2 and 3.5 SD of the protein, either way, in both replicates (recomputed)
# alvocidib = compound: CN1CC[C@H](c2c(O)cc(O)c3c(=O)cc(-c4ccccc4Cl)oc23)[C@H](O)C1 [alvocidib]
# In short: (§1)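 Pellets of K562 cells were dounce-homogenised in PBS pH 7.4 with 1 mM MgCl2, and the crude extract was held at 1 mg/mL protein for a 30 min treatment with 10 μM compound. Aliquots were heated for 3 min over 48°C-58°C and pooled before NP-40 was added to 0.5% at 4°C. The supernatant from 21,000xg for 90 min was quantified by TMTpro 16plex LC-MS/MS with channel sums equalised. Values are reported from duplicates as log-two fold change in thermal stability relative to solvent controls.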
# Tubastatin A = compound: CN1CCc2c(c3ccccc3n2Cc2ccc(C(=O)NO)cc2)C1 [Tubastatin A]
# In short: as §1
# [1] = compound: CNC(=O)C1=CC=CC=C1NC2=NC(=NC=C2Cl)NC3=C(C=C(C=C3)N4CCOCC4)OC
# In short: as §1
# defactinib = compound: CNC(=O)c1ccc(Nc2ncc(C(F)(F)F)c(NCc3nccnc3N(C)S(C)(=O)=O)n2)cc1 [defactinib]
# In short: as §1
# [2] = compound: CNc1nc(-c2ccc3c(N)n[nH]c3c2)cc(N2C[C@@H](C(=O)NC3CCCCC3)CC[C@H]2C)n1
# In short: as §1
# encorafenib = compound: COC(=O)N[C@@H](C)CNc1nccc(-c2cn(C(C)C)nc2-c2cc(Cl)cc(NS(C)(=O)=O)c2F)n1 [encorafenib]
# In short: as §1
# [3] = compound: COC(=O)[C@H](CCSC)NC(=O)C1=C(C=C(C=C1)NC[C@H](CS)N)C2=CC=CC=C2
# In short: as §1
# alisertib = compound: COc1cc(Nc2ncc3c(n2)-c2ccc(Cl)cc2C(c2c(F)cccc2OC)=NC3)ccc1C(=O)O [alisertib]
# In short: as §1
# [4] = compound: COc1cc2nc(-c3cc(F)ccc3O)nc(N[C@@H]3CNC[C@H]3C(C)(C)O)c2cc1OC
# In short: as §1
# gefitinib = compound: COc1cc2ncnc(Nc3ccc(F)c(Cl)c3)c2cc1OCCCN1CCOCC1 [gefitinib]
# In short: as §1
# lapatinib = compound: CS(=O)(=O)CCNCc1ccc(-c2ccc3ncnc(Nc4ccc(OCc5cccc(F)c5)c(Cl)c4)c3c2)o1 [lapatinib]
# In short: as §1
# pictilisib = compound: CS(=O)(=O)N1CCN(Cc2cc3nc(-c4cccc5[nH]ncc45)nc(N4CCOCC4)c3s2)CC1 [pictilisib]
# In short: as §1
# crizotinib = compound: C[C@@H](Oc1cc(-c2cnn(C3CCNCC3)c2)cnc1N)c1c(Cl)ccc(F)c1Cl [crizotinib]
# In short: as §1
# [5] = compound: C[C@H](C1=CC=C(C=C1)C(=O)NC2=C3C=CNC3=NC=C2)N
# In short: as §1
# duvelisib = compound: C[C@H](Nc1ncnc2nc[nH]c12)c1cc2cccc(Cl)c2c(=O)n1-c1ccccc1 [duvelisib]
# In short: as §1
# gandotinib = compound: Cc1cc(Nc2cc(CN3CCOCC3)c3nc(C)c(Cc4ccc(Cl)cc4F)n3n2)n[nH]1 [gandotinib]
# In short: as §1
# tozasertib = compound: Cc1cc(Nc2cc(N3CCN(C)CC3)nc(Sc3ccc(NC(=O)C4CC4)cc3)n2)n[nH]1 [tozasertib]
# In short: as §1
# doramapimod = compound: Cc1ccc(-n2nc(C(C)(C)C)cc2NC(=O)Nc2ccc(OCCN3CCOCC3)c3ccccc23)cc1 [doramapimod]
# In short: as §1
# bafetinib = compound: Cc1ccc(NC(=O)c2ccc(CN3CC[C@H](N(C)C)C3)c(C(F)(F)F)c2)cc1Nc1nccc(-c2cncnc2)n1 [bafetinib]
# In short: as §1
# [6] = compound: Cc1cccc(CC(=O)N2CCc3c2ccc(-c2cn(C)c4ncnc(N)c24)c3F)n1
# In short: as §1
Target,log2 fold change (alvocidib),log2 fold change (Tubastatin A),log2 fold change [1],log2 fold change (defactinib),log2 fold change [2],log2 fold change (encorafenib),log2 fold change [3],log2 fold change (alisertib),log2 fold change [4],log2 fold change (gefitinib),log2 fold change (lapatinib),log2 fold change (pictilisib),log2 fold change (crizotinib),log2 fold change [5],log2 fold change (duvelisib),log2 fold change (gandotinib),log2 fold change (tozasertib),log2 fold change (doramapimod),log2 fold change (bafetinib),log2 fold change [6]
YKT6 (UniProt O15498),inactive: 0.014,inactive: 0.014,inactive: -0.048,inactive: -0.02,inactive: 0.052,inactive: 0.005,inactive: -0.034,inactive: -0.003,inactive: 0.001,inactive: 0.032,inactive: -0.003,inactive: -0.036,inactive: 0.059,inactive: 0.06,inactive: -0.032,inactive: -0.087,inactive: -0.021,inactive: 0.039,inactive: 0.018,inactive: -0.105
ZDHHC18 (UniProt Q9NUE0),inactive: -0.09,inactive: -0.016,inactive: 0.222,inactive: 0.029,inactive: -0.044,inactive: -0.038,inactive: 0.042,inactive: -0.131,inactive: -0.036,inactive: -0.069,inactive: 0.029,inactive: 0.078,inactive: -0.023,inactive: -0.017,inactive: 0.013,inactive: -0.149,inactive: -0.061,inactive: 0.054,inactive: -0.068,inactive: -0.11
XPO1 (UniProt O14980),inactive: 0.005,inactive: -0.096,inactive: -0.011,inactive: 0.016,inactive: -0.013,inactive: 0.034,inactive: -0.101,inactive: 0.013,inactive: 0.023,inactive: -0.007,inactive: -0.039,inactive: 0,inactive: -0.034,inactive: -0.037,inactive: -0.026,inactive: -0.043,inactive: 0.021,inactive: -0.001,inactive: -0.02,inactive: 0.07
ZCCHC17 (UniProt Q9NP64),inactive: 0.047,inactive: 0.057,inactive: 0.007,inactive: 0.146,inactive: 0.014,inactive: -0.095,inactive: 0.061,inactive: -0.013,inactive: -0.033,inactive: -0.112,inactive: 0.048,inactive: 0.025,inactive: -0.107,inactive: -0.002,inactive: 0.065,inactive: -0.071,inactive: -0.019,inactive: 0.09,inactive: 0.008,inactive: -0.06
ZC3H13 (UniProt Q5T200),inactive: -0.063,inactive: 0.063,inactive: -0.073,inactive: 0.088,inactive: -0.028,inactive: -0.069,inactive: 0.021,active: -0.362,inactive: 0.016,inactive: -0.077,inactive: -0.013,inactive: -0.022,inactive: -0.057,inactive: 0.039,inactive: 0.041,inactive: -0.063,inactive: 0.062,inactive: 0.149,inactive: 0.017,inactive: 0.102
YWHAB (UniProt P31946),inactive: 0.007,inactive: 0.02,inactive: 0.005,inactive: -0.024,inactive: -0.01,inactive: -0.005,inactive: -0.044,inactive: 0.068,inactive: 0.001,inactive: -0.032,inactive: 0.005,inactive: 0.052,inactive: 0.032,inactive: 0.233,inactive: -0.013,inactive: -0.041,inactive: 0.002,inactive: -0.049,inactive: 0.069,inactive: -0.084
XRCC1 (UniProt P18887),inactive: 0.054,inactive: 0.001,inactive: 0.017,inactive: 0.005,inactive: -0.03,inactive: 0.015,inactive: -0.021,inactive: 0.021,inactive: -0.003,inactive: -0.016,inactive: -0.018,inactive: -0.018,inactive: -0.01,inactive: 0.111,inactive: -0.019,inactive: -0.154,inactive: 0.004,inactive: -0.002,inactive: 0.001,inactive: -0.059
ZFC3H1 (UniProt O60293),inactive: -0.031,inactive: 0.015,inactive: 0.076,inactive: -0.029,inactive: 0.057,inactive: -0.012,inactive: 0.038,inactive: 0.001,inactive: -0.019,inactive: 0.037,inactive: 0.016,inactive: 0.077,inactive: -0.07,inactive: -0.099,inactive: -0.086,inactive: 0.011,inactive: 0.081,inactive: 0.08,inactive: 0.003,inactive: 0.019
